# Measurements from PubChem BioAssay AID504594 (Broad Institute, 2011).
# “And” between values parts separate entries of the source, which are not always exact repeats. Equal values may be shown once. Among all 2,000 compounds or so, fewer than 10 were called active.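 The calls were made as follows: active = growth inhibition of at least 75% in every replicate, which also brings the mean inhibition to 75% or more; inconclusive = mean inhibition 75% or more but some replicate under 75%; inactive = the rest.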 Some of the results follow.
# Assay: growth inhibition of PfHsp90-dependent yeast, primary screen, antimalarial PfHsp90 inhibitor project, S. cerevisiae, BacTiter-Glo luminescence (AID 504594);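 also: 0% = DMSO neutral control wells and 100% = 20 µM radicicol control wells; higher value means stronger growth inhibition because the sign is flipped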
# Conditions: S. cerevisiae expressing PfHsp90, BacTiter-Glo growth, 48 h; at 9.4 µM; hits give high values
row,Structure (SMILES),growth inhibition
1,COc1ccc(C(=O)NC(=O)NC2(C(Cl)(Cl)Cl)OCCO2)cc1,inactive: -0.449%
2,Cc1ccc(CSCC(=O)NCCCN2CCOCC2)cc1,inactive: -3.11%
3,CC(=O)C1=C(Nc2ccc(C)cc2)CC(C)(O)C(C(C)=O)C1c1ccco1 (configuration not stated),inactive: -8.53%
4,O=[N+]([O-])c1ccc2cn[nH]c2c1,inactive: -6.28%
5,CCn1c(=N)c(C(=O)NC)cc2c(=O)n3cccc(C)c3nc21,inactive: 10.4%
6,OCCN(CCO)c1nc(N2CCCCC2)c2nc(N(CCO)CCO)nc(N3CCCCC3)c2n1,inactive: -3.45%
7,Cc1ccc(C2CC(=O)C(C=NCCN3CCN(CC(=O)Nc4cc(C)cc(C)c4)CC3)=C(O)C2)cc1 (configuration not stated),inactive: 5.52%
8,CC(C)C12CN3CC(C(C)C)(CN(C1)C3c1ccccc1)C2O (configuration not stated),inactive: 12.1%
9,CCOC(=O)COc1ccc2c(=O)c(-c3ccccc3)coc2c1,inactive: 0.717%
10,NC(N)=NC(=O)c1nc(Cl)c(N)nc1N,inactive: -0.187%
11,CC(=O)CCc1oc2ccccc2c1-c1ccccc1,inactive: -3.53%
12,COc1ccc(Cc2noc(CN(C)CCN3CCc4ccccc4C3)n2)cc1OC,inactive: -15.1%
13,CC(C)C12CN3CC(C(C)C)(CN(C1)C31C(=O)Nc3ccccc31)C2=O (configuration not stated),inactive: 12.6%
14,CCN(CC)CC(=O)Nc1c(C)cccc1C,inactive: -1.23% and inactive: 1.16%
15,CC(=O)CSc1ncnc2c1cnn2-c1ccccc1,inactive: 1.69%
16,COc1ccc(C(=O)CC2OC(=O)c3c2ccc(OC)c3OC)cc1 (configuration not stated),inactive: 5.73%
17,CC(=O)OCC(=O)[C@@]12OC(C)(C)O[C@@H]1C[C@H]1[C@@H]3C[C@H](F)C4=CC(=O)C=C[C@]4(C)[C@@]3(F)[C@@H](O)C[C@@]12C,inactive: 7.75%
18,COc1ccc(/C=C\c2cc(OC)c(OC)cc2CC[N+](C)(C)C)cc1OC,inactive: -8.14%
19,c1ccc2c(CC3=NCCN3)cccc2c1,inactive: 8.61%
20,O=C(N/N=C\c1cc([N+](=O)[O-])ccc1N1CCOCC1)c1ccccn1,inactive: -5.86%
21,CCOc1ccc(C(=O)N2CCCC2C(=O)O)cc1 (configuration not stated),inactive: -15.5%
22,Cc1cn([C@H]2C=C[C@@H](CO)O2)c(=O)[nH]c1=O,inactive: -9.36%
23,CC(=O)NS(=O)(=O)c1ccc(N)cc1,inactive: -2.29%
24,O=C1CC(c2ccc(O)cc2)Oc2cc(O)cc(O)c21 (configuration not stated),inactive: -2.96%
25,Cn1cc(CN2CCCC(CO)(Cc3cccc(Cl)c3)C2)cn1 (configuration not stated),inactive: -7.83%

row,Structure (SMILES),growth inhibition
1,COc1cc(CNCCc2ccccc2F)ccc1OCC(=O)N1CCCCC1,inactive: 2.63%
2,CC(O)Cn1cnc2c1c(=O)n(C)c(=O)n2C (configuration not stated),inactive: 5.74%
3,O=C(NC(=S)N1CCCCC1)c1cccnc1,inactive: 6.65%
4,CC(C)C12CN3CC(C(C)C)(CN(C1)C3c1ccccc1O)C2=O (configuration not stated),inactive: -20.9%
5,NS(=O)(=O)c1cc2c(cc1C(F)(F)F)NCNS2(=O)=O,inactive: 5.18%
6,CCOC(=O)/C=C1\NC(C)(C)Cc2cc(OC)c(OC)cc21,inactive: -1.93%
7,CC12CN3CC(C)(CN(C1)C3c1ccc(Br)cc1O)C2 (configuration not stated),inactive: -9.36%
8,O=S(=O)(NCCCCCNS(=O)(=O)c1ccccc1)c1ccccc1,inactive: 0.743%
9,CCc1ccc(/C=C2\SC(=S)N(CCC(=O)N3CCN(C)CC3)C2=O)cc1,inactive: 0.811%
10,COC(=O)c1cc(=O)c2ccc(OC)cc2o1,inactive: -6.99%
11,Cc1cccc(C)c1NS(=O)(=O)c1ccc(NC(=O)c2ccc(Cl)c([N+](=O)[O-])c2)cc1,inactive: 2.94%
12,CN1[C@@H]2CC(OC(=O)[C@H](CO)c3ccccc3)C[C@H]1[C@@H]1O[C@@H]12 (some centres not stated),inactive: 12.2% and inactive: 3.68%
13,O=C(NCc1ccc(N2CCCC2=O)cc1)c1ccc(F)cc1,inactive: 5.55%
14,COc1cc(C(=O)Nc2cccc(-c3nnc(-c4ccco4)o3)c2)ccc1OC(C)=O,inactive: -14.1%
15,CCNC(=S)Nc1ccc(OC(F)(F)F)cc1,inactive: 4.03%
16,O=c1cc(-c2ccc3c(c2)OCCO3)oc2ccc(Cl)cc12,inactive: -11.1%
17,NC(=O)c1cnccn1,inactive: -0.413%
18,Cc1nc2ccccn2c(=O)c1CCN1CCC(C(=O)c2ccc(F)cc2)CC1,inactive: 0.603%
19,CCCn1c(=O)c2[nH]c(C3CCCC3)nc2n(CCC)c1=O,inactive: -9.88%
20,CCOC(=O)n1c(=O)oc2ccccc21,inactive: -13.3%
21,O=C(CCNNC(=O)c1ccncc1)NCc1ccccc1,inactive: 7.36%
22,Oc1[nH]c2ccccc2c1C1=NCCCC1,inactive: 6.2%
23,COc1ccc(-c2noc(CCc3ccccc3)n2)cc1,inactive: -9.73%
24,C=C(C)[C@@H]1CC=C(CN2CCC(N3CCC(C(=O)N4CCCC4)CC3)CC2)CC1,inactive: -0.183%
25,COc1cc2c(cc1NCc1ccc3c(c1)OCO3)oc1ccccc12,inactive: 6.06%

# Laid out differently: entries from further up.
row	Structure (SMILES)	growth inhibition
9	CCc1ccc(/C=C2\SC(=S)N(CCC(=O)N3CCN(C)CC3)C2=O)cc1	inactive: 0.811%
16	O=c1cc(-c2ccc3c(c2)OCCO3)oc2ccc(Cl)cc12	inactive: -11.1%
21	O=C(CCNNC(=O)c1ccncc1)NCc1ccccc1	inactive: 7.36%
22	Oc1[nH]c2ccccc2c1C1=NCCCC1	inactive: 6.2%

# Following part:

row,Structure (SMILES),growth inhibition
1,CC(C)C[C@H](NC(=O)[C@@H]1Cc2ccccc2CN1C(=O)OC(C)(C)C)C(=O)NCC1CCC(C(=O)O)CC1 (some centres not stated),inactive: -0.118%
2,COC(=O)c1ccc(=O)n(Cc2ccco2)c1,inactive: -3.9%
3,O=C(Nc1cccc(Oc2c(F)c(F)c(F)c(F)c2F)c1)N1C[C@@H]2C[C@@H](C1)c1cccc(=O)n1C2,inactive: 7.42%
4,N/C(=N\OC(=O)c1ccc(Br)o1)c1ccccn1,inactive: 1.74%
5,Cn1c(=O)[nH]c(=O)c2c1nc(Br)n2CCCO,inactive: 1.03%
6,COc1cccc(OC2OC3COC(C)(C)OC3C(O)C2NC(C)=O)c1 (configuration not stated),inactive: -1.74%
7,O=C(Nc1ccc(Oc2c(F)c(F)c(F)c(F)c2F)cc1)OC1CCN2Cc3ccccc3N=C12 (configuration not stated),inactive: 2.89%
8,C/C=C(/C(=C/C)c1ccc(O)cc1)c1ccc(O)cc1,inactive: -5.88%
9,Cc1ncc([N+](=O)[O-])n1CC(C)O (configuration not stated),inactive: -0.773%
10,COc1ccc(-c2cc3cc(OC)c(OC)cc3c(C)n2)cc1,inactive: 4.39%
11,O=[N+]([O-])c1cc(/C=N/n2cnnc2)ccc1N1CCCC1,inactive: 1.79%
12,COc1ccc2cc([C@H](C)C(=O)O)ccc2c1,inactive: -4.27%
13,CCN(CC)c1ccc(C2=NNC(=O)CC2C)cc1[N+](=O)[O-] (configuration not stated),inactive: -4.84%
14,C[C@@H]1C[C@H](Nc2ccccc2)c2ccccc2N1C(=O)c1cccnc1,inactive: -6.79%
15,Cc1cc(O)c2/c(=N\N)c(-c3csc(C)n3)coc2c1,inactive: 0.851%
16,CC1(C)S[C@@H]2[C@H](NC(=O)[C@H](N)c3ccccc3)C(=O)N2[C@H]1C(=O)O,inactive: 0.582% and inactive: 0.988%
17,CC(=O)NCCCC(=O)NC(CCC(=O)OCc1ccccc1)C(=O)OCc1ccccc1 (configuration not stated),inactive: 0.724%
18,O=c1n(CCCN2CCN(c3cccc(Cl)c3)CC2)nc2ccccn12,inactive: -4.91%
19,CC12CCC(C(=O)NNc3ccccc3)(C(=O)C1=O)C2(C)C (configuration not stated),inactive: 0.791%
20,OC12CCCCC1C(c1ccc3c(c1)OCO3)N(Cc1cccc(F)c1)CC2 (configuration not stated),inactive: -5.52%
21,CC(=O)O[C@H]1CC[C@H]2[C@@H]3CCc4cc(O)ccc4[C@H]3CC[C@]12C,inactive: -2.83%
22,CCCCCCCC(=O)OCC(O)CO (configuration not stated),inactive: -0.758%
23,Nc1ccc(N)c(C(=O)O)c1,inactive: -0.138%
24,CCOc1ccc2nc(S(N)(=O)=O)sc2c1,inactive: 4.43%
25,CN1CCCN(C(c2ccccc2)c2ccc(Cl)cc2)CC1 (configuration not stated),inactive: -0.936%

row,Structure (SMILES),growth inhibition
1,O=C(O)c1ccccc1O,inactive: -8.83%
2,CCNCCC(CCC(C)C)c1ccc2c(c1)OCO2 (configuration not stated),inactive: 17.1%
3,C/C(NC(=O)c1cccs1)=C1\C(=O)C[C@@H]2[C@H]1C2(C)C,inactive: 1.59%
4,O=P(c1ccccc1)(c1ccccc1)c1nc(-c2ccc(Cl)cc2)oc1N1CCOCC1,inactive: -7.34%
5,Cc1cc(/C=N/O)c(C)n1-c1ccc(Br)cc1,inactive: -4.29%
6,N#C/C(=C\c1ccc(O)c(O)c1)C(=O)NCCCc1ccccc1,inactive: 14.5%
7,COc1ccc(-c2[nH]ncc2CN(CCO)Cc2cccs2)c(F)c1,inactive: -4.42%
8,CCOC(=O)C1CCCN(Cc2nc(Cc3cccc(F)c3)no2)C1 (configuration not stated),inactive: -6.92%
9,CCOc1ccc(C(=O)NCC2(c3ccccc3)CCOCC2)cc1,inactive: 20.6%
10,COc1cccc(/C=C/C(=O)c2c(O)cc(C)oc2=O)c1O,inactive: -2.62%
11,CCN1C(=O)C(CC(=O)Nc2ccc(F)cc2)N(Cc2ccc3c(c2)OCO3)C1=S (configuration not stated),inactive: 10.5%
12,COc1ccccc1/C=C/C(=O)c1c2c(c(C)[nH]c1=O)CCCC2,inactive: 6.58%
13,CN(C)CCOc1ccc(Cl)cc1C(C)(C)C,inactive: -0.977%
14,CC(=O)c1c(C)[nH]c(C(=O)OCc2ccccc2)c1C,inactive: -16%
15,CCc1cc(=O)oc2cc(C)c(CN3CCCC(C)C3)c(O)c12 (configuration not stated),inactive: 16.4%
16,COC(=O)CCC(=O)CN,inactive: -5.07%
17,CC1(C)NC(C(=O)O)Cc2c1[nH]c1ccccc21 (configuration not stated),inactive: 7.2%
18,COc1ccc2cc(-c3nc4ccccc4n3C)c(=O)oc2c1,inactive: -7.02%
19,O=C(Nc1ccccc1)OCC1CCCN2CCCCC12 (configuration not stated),inactive: -3.54%
20,COc1cc(C2C(C(C)=O)=C(O)C(=O)N2c2ccc(C)cc2)ccc1O (configuration not stated),inactive: 6.76%
21,CC(C)=CCC/C(C)=C/CC/C(C)=N/O,inactive: -12.1%
22,CC(C)OC(=O)C(C)(C)Oc1ccc(C(=O)c2ccc(Cl)cc2)cc1,inactive: -6.46%

# No new results follow: 3 of the compounds above.
row,Structure (SMILES),growth inhibition
2,CCNCCC(CCC(C)C)c1ccc2c(c1)OCO2 (configuration not stated),inactive: 17.1%
3,C/C(NC(=O)c1cccs1)=C1\C(=O)C[C@@H]2[C@H]1C2(C)C,inactive: 1.59%
4,O=P(c1ccccc1)(c1ccccc1)c1nc(-c2ccc(Cl)cc2)oc1N1CCOCC1,inactive: -7.34%
